Source: PubChem BioAssay AID743121 (NCATS, 2013)
Here is one part, drawn at random, of about 26,000 deposited reagents. 167 of all reagents (0.63%) count as active. 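Calls are per gene from RSA p-values that are not deposited; an individual active-marked siRNA can sensitise only weakly.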 Reagents against one gene are numbered here. Not all columns of the deposit are shown.

Screen: 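Genes whose silencing strengthens cell killing by camptothecin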 (primary screen)
Cell system: MDA-MB-231 cells, a human breast cancer line
Reagent: single siRNA against human genes, 20 nM siRNA (0.8 pmol per well)
Time to read-out: 120 h (drug added 48 h after transfection, read 72 h later)
Treatment: camptothecin 20 nM (about EC30) for 72 h; vehicle 0.1% DMSO in parallel plates
Detection: 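Cell viability by ATP luminescence (CellTiter-Glo) as % of non-targeting siRNA wells, and the log2 ratio of viability without drug over viability with camptothecin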
Direction: log2 vehicle/camptothecin viability: higher = stronger sensitisation to camptothecin
Call rule: 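Active genes have an RSA gene-level p-value below 0.001, computed from the ratios of their separate siRNAs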

log2 vehicle/camptothecin viability, by gene and reagent
LRAT (lecithin retinol acyltransferase): #1 -0.351 inactive; #2 -0.333 inactive; #3 -0.347 inactive; #4 0.29 inactive
CSE1L (chromosome segregation 1 like): #1 0.692 inactive; #2 0.0406 inactive; #3 -0.176 inactive; #4 0.672 inactive
NR4A3 (nuclear receptor subfamily 4 group A member 3): #1 -0.24 inactive; #2 -0.235 inactive; #3 -0.0273 inactive
SPINK1 (serine peptidase inhibitor Kazal type 1): #1 0.097 inactive; #2 0.124 inactive; #3 0.473 inactive; #4 -0.0643 inactive
FBXW4 (F-box and WD repeat domain containing 4): #1 -0.345 inactive; #2 -0.381 inactive; #3 0.891 inactive; #4 -0.067 inactive
DNM1 (dynamin 1): #1 -0.119 inactive; #2 -0.254 inactive; #3 -0.32 inactive; #4 0.0799 inactive
PSPH (phosphoserine phosphatase): #1 -0.121 inactive; #2 -0.0854 inactive; #3 -0.0317 inactive; #4 -0.348 inactive
KCNK9 (potassium two pore domain channel subfamily K member 9): #1 -0.637 inactive; #2 -0.206 inactive; #3 -0.0515 inactive
NCR1 (natural cytotoxicity triggering receptor 1): #1 0.0931 inactive; #2 -0.552 inactive; #3 -0.224 inactive; #4 -0.532 inactive
GPC6 (glypican 6): #1 -0.072 inactive; #2 0.434 inactive; #3 -0.222 inactive; #4 -0.41 inactive
MYLK (myosin light chain kinase): #1 -0.343 inactive; #2 -0.188 inactive; #3 0.025 inactive; #4 0.364 inactive
ITGB7 (integrin subunit beta 7): #1 0.0312 inactive; #2 -0.13 inactive; #3 -0.276 inactive; #4 -0.371 inactive
